Source: the supplement of paper PMC12823440, “Inhibitors supercharge kinase turnover through native proteolytic circuits” (Nature, 2025)
Where a name gives a salt, the structure may show the parent alone. This is one part of the list. The calls rarely recur for the same compound in another form.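 Kinases, fused to nanoluciferase, were expressed in K562 cells; luminescence was measured every 4 h from 2 to 18 h as percent of control (DMSO = 100%, positive control = 0%). A time point is decreased if signal falls significantly (2 sigma). Hits were called by the authors by a rule that is not shown; the count of time points alone does not decide it.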

Amino acid sequences for entries named in this document (tags omitted). A change or cut given only in a name is not applied to a line headed by its entry.
UniProt P31152, whole entry: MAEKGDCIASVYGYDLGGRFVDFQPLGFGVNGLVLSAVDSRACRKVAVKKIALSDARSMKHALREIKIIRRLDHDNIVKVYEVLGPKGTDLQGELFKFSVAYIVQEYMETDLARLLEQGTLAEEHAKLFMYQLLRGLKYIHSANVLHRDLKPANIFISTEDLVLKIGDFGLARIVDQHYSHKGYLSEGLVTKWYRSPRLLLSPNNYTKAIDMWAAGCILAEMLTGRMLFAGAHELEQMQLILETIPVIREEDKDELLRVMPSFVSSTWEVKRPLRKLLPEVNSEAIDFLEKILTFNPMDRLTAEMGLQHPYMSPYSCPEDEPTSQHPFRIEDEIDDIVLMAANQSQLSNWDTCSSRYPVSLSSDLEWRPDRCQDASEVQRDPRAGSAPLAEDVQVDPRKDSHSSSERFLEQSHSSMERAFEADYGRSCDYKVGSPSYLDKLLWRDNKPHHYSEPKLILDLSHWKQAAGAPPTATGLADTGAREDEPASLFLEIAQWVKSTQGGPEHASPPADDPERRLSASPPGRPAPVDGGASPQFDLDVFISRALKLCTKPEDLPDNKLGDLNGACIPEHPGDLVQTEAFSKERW
UniProt P49137, whole entry, looked up: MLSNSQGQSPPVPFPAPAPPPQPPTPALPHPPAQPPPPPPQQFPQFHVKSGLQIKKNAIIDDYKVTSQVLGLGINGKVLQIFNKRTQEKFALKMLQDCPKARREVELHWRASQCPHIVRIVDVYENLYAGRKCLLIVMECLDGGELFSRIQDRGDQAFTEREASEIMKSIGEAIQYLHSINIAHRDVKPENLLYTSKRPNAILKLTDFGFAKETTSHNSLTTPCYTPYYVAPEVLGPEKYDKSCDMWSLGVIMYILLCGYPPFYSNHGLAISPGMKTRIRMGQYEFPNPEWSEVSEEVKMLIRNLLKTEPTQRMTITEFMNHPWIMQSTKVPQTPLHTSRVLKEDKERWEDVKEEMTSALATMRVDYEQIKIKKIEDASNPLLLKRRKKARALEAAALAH
UniProt Q9BUB5: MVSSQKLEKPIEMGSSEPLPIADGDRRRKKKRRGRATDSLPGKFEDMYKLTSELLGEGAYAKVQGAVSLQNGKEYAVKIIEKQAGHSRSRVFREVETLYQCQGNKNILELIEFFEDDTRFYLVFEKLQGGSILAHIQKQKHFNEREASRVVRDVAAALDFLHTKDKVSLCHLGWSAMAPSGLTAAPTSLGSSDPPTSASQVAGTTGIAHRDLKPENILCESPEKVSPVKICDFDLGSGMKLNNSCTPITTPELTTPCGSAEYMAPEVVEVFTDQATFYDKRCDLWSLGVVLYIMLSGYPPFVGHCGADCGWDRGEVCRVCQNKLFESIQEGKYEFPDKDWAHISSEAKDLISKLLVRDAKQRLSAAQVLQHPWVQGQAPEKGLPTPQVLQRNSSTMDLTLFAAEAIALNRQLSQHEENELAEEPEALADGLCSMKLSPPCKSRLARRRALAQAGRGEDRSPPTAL
UniProt Q16620, whole entry, looked up: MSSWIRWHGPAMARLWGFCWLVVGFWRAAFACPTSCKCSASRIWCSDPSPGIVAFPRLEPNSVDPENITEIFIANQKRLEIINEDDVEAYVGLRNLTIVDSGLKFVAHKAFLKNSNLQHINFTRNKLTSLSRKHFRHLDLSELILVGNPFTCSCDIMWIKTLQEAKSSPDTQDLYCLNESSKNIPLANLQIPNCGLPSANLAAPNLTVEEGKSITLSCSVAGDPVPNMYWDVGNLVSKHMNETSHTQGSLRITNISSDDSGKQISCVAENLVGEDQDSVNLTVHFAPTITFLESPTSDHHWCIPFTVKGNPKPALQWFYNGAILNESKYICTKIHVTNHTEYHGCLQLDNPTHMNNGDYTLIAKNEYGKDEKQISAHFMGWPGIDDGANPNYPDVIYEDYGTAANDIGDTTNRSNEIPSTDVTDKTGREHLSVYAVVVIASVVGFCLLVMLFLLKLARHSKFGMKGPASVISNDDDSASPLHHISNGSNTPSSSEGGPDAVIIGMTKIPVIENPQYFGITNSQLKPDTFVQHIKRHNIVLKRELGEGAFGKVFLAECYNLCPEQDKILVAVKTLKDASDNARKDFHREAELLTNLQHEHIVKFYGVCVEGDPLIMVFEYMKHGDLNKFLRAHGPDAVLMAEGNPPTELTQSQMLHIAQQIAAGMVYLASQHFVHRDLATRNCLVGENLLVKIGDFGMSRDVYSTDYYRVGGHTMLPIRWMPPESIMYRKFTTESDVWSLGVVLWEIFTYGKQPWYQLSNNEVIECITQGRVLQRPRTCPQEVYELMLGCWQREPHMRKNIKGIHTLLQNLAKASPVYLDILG
UniProt Q96KB5: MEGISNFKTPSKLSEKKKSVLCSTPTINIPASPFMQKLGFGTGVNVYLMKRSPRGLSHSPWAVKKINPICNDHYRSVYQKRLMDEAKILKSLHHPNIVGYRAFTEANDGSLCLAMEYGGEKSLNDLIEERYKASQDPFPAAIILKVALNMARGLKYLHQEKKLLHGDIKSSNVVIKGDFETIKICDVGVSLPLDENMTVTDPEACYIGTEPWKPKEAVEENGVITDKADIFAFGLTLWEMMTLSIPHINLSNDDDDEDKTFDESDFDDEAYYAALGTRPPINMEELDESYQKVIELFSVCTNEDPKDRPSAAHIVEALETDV
UniProt P09619, whole entry: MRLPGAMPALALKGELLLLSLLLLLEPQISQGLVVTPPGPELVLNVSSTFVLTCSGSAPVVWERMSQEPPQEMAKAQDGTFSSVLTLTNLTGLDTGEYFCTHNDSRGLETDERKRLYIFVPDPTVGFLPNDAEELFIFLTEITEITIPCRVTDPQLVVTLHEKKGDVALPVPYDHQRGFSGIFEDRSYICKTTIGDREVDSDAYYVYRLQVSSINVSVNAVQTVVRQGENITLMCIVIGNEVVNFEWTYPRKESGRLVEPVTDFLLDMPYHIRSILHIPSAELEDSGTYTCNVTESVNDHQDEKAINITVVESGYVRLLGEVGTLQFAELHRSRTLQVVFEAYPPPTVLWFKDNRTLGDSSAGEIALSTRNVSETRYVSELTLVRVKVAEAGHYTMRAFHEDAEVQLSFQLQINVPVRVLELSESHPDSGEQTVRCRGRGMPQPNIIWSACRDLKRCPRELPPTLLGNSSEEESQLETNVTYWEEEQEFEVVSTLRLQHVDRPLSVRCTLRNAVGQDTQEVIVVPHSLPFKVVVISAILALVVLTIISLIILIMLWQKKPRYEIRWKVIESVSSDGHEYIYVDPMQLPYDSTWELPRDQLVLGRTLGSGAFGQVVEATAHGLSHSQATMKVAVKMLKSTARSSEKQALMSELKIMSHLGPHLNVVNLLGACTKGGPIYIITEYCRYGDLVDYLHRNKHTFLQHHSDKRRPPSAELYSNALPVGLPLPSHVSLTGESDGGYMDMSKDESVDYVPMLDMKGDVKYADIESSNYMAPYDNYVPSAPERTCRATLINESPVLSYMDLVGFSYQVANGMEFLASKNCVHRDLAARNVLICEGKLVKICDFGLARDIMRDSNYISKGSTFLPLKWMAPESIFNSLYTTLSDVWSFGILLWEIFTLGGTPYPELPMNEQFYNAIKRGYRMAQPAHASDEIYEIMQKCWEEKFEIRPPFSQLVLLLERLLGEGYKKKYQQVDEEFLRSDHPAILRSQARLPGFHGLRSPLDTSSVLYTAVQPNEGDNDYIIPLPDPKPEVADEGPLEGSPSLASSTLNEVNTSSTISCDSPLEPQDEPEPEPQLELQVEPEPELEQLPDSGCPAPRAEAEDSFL
UniProt P42356, whole entry, looked up: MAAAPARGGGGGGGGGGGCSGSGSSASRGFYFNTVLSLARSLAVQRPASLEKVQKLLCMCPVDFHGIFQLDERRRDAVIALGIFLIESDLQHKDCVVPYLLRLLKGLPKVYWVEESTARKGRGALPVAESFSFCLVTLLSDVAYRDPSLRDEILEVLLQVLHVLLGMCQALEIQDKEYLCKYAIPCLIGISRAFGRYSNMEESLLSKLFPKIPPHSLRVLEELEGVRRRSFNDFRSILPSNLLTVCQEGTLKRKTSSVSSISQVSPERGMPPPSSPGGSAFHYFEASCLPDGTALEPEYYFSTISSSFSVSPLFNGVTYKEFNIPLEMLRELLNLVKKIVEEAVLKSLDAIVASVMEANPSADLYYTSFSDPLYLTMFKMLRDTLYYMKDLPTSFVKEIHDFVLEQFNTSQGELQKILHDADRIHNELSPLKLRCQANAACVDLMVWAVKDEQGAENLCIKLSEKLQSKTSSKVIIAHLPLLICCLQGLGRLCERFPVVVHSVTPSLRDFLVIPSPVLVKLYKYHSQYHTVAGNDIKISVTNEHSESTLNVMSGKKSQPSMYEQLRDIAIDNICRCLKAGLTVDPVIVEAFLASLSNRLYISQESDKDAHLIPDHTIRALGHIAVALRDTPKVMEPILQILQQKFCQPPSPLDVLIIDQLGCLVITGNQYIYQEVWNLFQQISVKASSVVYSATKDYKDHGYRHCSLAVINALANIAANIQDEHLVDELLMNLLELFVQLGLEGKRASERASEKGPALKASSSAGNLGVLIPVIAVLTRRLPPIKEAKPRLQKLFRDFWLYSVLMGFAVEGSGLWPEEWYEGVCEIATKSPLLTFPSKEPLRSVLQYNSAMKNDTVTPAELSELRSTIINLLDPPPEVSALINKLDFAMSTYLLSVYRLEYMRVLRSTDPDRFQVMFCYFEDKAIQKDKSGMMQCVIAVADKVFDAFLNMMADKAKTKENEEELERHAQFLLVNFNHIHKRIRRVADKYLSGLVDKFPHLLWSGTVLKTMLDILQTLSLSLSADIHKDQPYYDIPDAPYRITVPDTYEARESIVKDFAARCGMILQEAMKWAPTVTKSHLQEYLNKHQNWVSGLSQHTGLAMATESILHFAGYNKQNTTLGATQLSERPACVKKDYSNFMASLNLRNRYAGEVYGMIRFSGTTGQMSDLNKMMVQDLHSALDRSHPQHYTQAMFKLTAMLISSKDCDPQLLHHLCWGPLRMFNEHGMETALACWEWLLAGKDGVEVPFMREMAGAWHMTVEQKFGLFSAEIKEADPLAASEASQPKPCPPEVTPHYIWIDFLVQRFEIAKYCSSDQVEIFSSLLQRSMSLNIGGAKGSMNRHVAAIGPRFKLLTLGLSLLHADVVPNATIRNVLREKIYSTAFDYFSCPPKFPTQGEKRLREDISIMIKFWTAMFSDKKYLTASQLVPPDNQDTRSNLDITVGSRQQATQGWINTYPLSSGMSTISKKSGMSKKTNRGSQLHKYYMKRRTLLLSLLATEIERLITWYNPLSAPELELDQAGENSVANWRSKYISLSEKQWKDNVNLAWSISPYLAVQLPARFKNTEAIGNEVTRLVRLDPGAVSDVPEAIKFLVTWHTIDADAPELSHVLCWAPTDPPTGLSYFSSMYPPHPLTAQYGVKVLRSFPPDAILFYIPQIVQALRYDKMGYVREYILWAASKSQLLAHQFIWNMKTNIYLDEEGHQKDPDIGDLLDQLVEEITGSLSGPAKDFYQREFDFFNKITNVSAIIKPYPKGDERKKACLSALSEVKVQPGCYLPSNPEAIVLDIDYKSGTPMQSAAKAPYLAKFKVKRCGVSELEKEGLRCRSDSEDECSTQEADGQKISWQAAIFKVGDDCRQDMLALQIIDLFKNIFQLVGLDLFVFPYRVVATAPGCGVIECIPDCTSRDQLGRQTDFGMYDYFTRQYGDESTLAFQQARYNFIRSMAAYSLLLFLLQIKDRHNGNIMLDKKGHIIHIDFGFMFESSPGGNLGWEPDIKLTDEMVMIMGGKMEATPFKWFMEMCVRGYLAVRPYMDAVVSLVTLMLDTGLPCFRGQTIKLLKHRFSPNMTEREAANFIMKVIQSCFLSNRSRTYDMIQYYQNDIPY
UniProt P53350, whole entry: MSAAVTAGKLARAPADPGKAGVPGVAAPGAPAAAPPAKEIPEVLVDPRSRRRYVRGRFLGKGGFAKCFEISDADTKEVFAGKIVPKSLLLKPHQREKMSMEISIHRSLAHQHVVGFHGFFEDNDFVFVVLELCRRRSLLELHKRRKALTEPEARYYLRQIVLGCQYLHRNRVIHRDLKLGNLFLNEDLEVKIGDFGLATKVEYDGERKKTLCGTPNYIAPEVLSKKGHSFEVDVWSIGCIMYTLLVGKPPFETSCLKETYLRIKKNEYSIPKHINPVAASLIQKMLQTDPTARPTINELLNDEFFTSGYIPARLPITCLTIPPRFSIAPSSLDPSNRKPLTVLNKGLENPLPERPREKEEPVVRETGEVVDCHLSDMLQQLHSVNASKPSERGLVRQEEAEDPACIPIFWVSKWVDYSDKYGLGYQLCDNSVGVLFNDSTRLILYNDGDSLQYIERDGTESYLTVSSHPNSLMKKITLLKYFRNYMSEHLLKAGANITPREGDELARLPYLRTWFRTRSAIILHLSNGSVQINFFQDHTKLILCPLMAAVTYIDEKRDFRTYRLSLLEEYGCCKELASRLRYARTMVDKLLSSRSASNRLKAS

Experiments:
Assay in all cases: kinase-Nluc reporter destabilization hit call (1 = scored as downregulated) (binary); higher = compound decreases kinase abundance
Conditions in all cases: K562, 2-18 h
[1] = target: MAPK1 (UniProt P28482)
[2] = target: MAPK4 (UniProt P31152)
[3] = target: MAPKAPK2 (UniProt P49137)
[4] = target: MKNK1 (UniProt Q9BUB5)
[5] = target: NTRK2 (UniProt Q16620)
[6] = target: NTRK3 (UniProt Q16288)
[7] = target: PAK4 (UniProt O96013)
[8] = target: PBK (UniProt Q96KB5)
[9] = target: PDGFRB (UniProt P09619)
[10] = target: PDK1 (UniProt Q15118)
[11] = target: PDPK1 (UniProt O15530)
[12] = target: PIK4CA (UniProt P42356)
[13] = target: PIK4CB (UniProt Q9UBF8)
[14] = target: PLK1 (UniProt P53350)
[15] = target: PRKAA1 (UniProt Q13131)
[16] = target: PRKCA (UniProt P17252)
[17] = target: PTK2 (UniProt Q05397)
[18] = target: PTK2B (UniProt Q14289)
[19] = target: RAF1 (UniProt P04049)
[20] = target: RAF1_S257L (clone: RAF1_mut) (UniProt P04049)

Measured: kinase-Nluc reporter destabilization hit call

C[C@@H](N)c1ccc(C(=O)Nc2ccnc3[nH]ccc23)cc1
inactive: [1]; 10 µM 0 | [2]; 10 µM 0 | [3]; 10 µM 0 | [4]; 10 µM 0 | [5]; 10 µM 0 | [6]; 10 µM 0 | [7]; 10 µM 0 | [8]; 10 µM 0 | [9]; 10 µM 0 | [10]; 10 µM 0 | [11]; 10 µM 0 | [12]; 10 µM 0 | [13]; 10 µM 0 | [14]; 10 µM 0 | [15]; 10 µM 0 | [16]; 10 µM 0 | [17]; 10 µM 0 | [18]; 10 µM 0 | [19]; 10 µM 0 | [20]; 10 µM 0

C=CC(=O)Nc1cc2c(Nc3ccc(F)c(Cl)c3)ncnc2cc1C#CC(C)(C)N1CCN(C)CC1 [AV-412 (free base)]
inactive: [1]; 2.5 µM 0 | [2]; 2.5 µM 0 | [3]; 2.5 µM 0 | [4]; 2.5 µM 0 | [5]; 2.5 µM 0 | [6]; 2.5 µM 0 | [7]; 2.5 µM 0 | [8]; 2.5 µM 0 | [9]; 2.5 µM 0 | [10]; 2.5 µM 0 | [11]; 2.5 µM 0 | [12]; 2.5 µM 0 | [13]; 2.5 µM 0 | [14]; 2.5 µM 0 | [15]; 2.5 µM 0 | [16]; 2.5 µM 0 | [17]; 2.5 µM 0 | [18]; 2.5 µM 0 | [19]; 2.5 µM 0 | [20]; 2.5 µM 0

CCCCCCCCc1ccc(CCC(N)(CO)CO)cc1 [Fingolimod]
inactive: [1]; 2.5 µM 0 | [2]; 2.5 µM 0 | [3]; 2.5 µM 0 | [4]; 2.5 µM 0 | [5]; 2.5 µM 0 | [6]; 2.5 µM 0 | [7]; 2.5 µM 0 | [8]; 2.5 µM 0 | [9]; 2.5 µM 0 | [10]; 2.5 µM 0 | [11]; 2.5 µM 0 | [12]; 2.5 µM 0 | [13]; 2.5 µM 0 | [14]; 2.5 µM 0 | [15]; 2.5 µM 0 | [16]; 2.5 µM 0 | [17]; 2.5 µM 0 | [18]; 2.5 µM 0 | [19]; 2.5 µM 0 | [20]; 2.5 µM 0

FC(F)(F)c1ccc(CNc2ccc(Cc3c[nH]c4ncc(Cl)cc34)cn2)cn1 [Pexidartinib (hydrochloride)]
inactive: [1]; 10 µM 0 | [2]; 10 µM 0 | [3]; 10 µM 0 | [4]; 10 µM 0 | [5]; 10 µM 0 | [6]; 10 µM 0 | [7]; 10 µM 0 | [8]; 10 µM 0 | [9]; 10 µM 0 | [10]; 10 µM 0 | [11]; 10 µM 0 | [12]; 10 µM 0 | [13]; 10 µM 0 | [14]; 10 µM 0 | [15]; 10 µM 0 | [16]; 10 µM 0 | [17]; 10 µM 0 | [18]; 10 µM 0 | [19]; 10 µM 0 | [20]; 10 µM 0

Oc1cccc(-c2nc(N3CCOCC3)c3oc4ncccc4c3n2)c1
inactive: [1]; 10 µM 0 | [2]; 10 µM 0 | [3]; 10 µM 0 | [4]; 10 µM 0 | [5]; 10 µM 0 | [6]; 10 µM 0 | [7]; 10 µM 0 | [8]; 10 µM 0 | [9]; 10 µM 0 | [10]; 10 µM 0 | [11]; 10 µM 0 | [12]; 10 µM 0 | [13]; 10 µM 0 | [14]; 10 µM 0 | [15]; 10 µM 0 | [16]; 10 µM 0 | [17]; 10 µM 0 | [18]; 10 µM 0 | [19]; 10 µM 0 | [20]; 10 µM 0

CN(C)C/C=C/C(=O)Nc1cc2c(Nc3ccc(F)c(Cl)c3)ncnc2cc1O[C@H]1CCOC1 [Afatinib]
inactive: [1]; 10 µM 0 | [2]; 10 µM 0 | [3]; 10 µM 0 | [4]; 10 µM 0 | [5]; 10 µM 0 | [6]; 10 µM 0 | [7]; 10 µM 0 | [8]; 10 µM 0 | [9]; 10 µM 0 | [10]; 10 µM 0 | [11]; 10 µM 0 | [12]; 10 µM 0 | [13]; 10 µM 0 | [14]; 10 µM 0 | [15]; 10 µM 0 | [16]; 10 µM 0 | [17]; 10 µM 0 | [18]; 10 µM 0 | [19]; 10 µM 0 | [20]; 10 µM 0

CS(=O)(=O)N1CCN(Cc2cc3nc(-c4cccc5[nH]ncc45)nc(N4CCOCC4)c3s2)CC1 [Pictilisib (dimethanesulfonate)]
inactive: [1]; 10 µM 0 | [2]; 10 µM 0 | [3]; 10 µM 0 | [4]; 10 µM 0 | [5]; 10 µM 0 | [6]; 10 µM 0 | [7]; 10 µM 0 | [8]; 10 µM 0 | [9]; 10 µM 0 | [10]; 10 µM 0 | [11]; 10 µM 0 | [12]; 10 µM 0 | [13]; 10 µM 0 | [14]; 10 µM 0 | [15]; 10 µM 0 | [16]; 10 µM 0 | [17]; 10 µM 0 | [18]; 10 µM 0 | [19]; 10 µM 0 | [20]; 10 µM 0

Clc1ccc(C2(c3ccc(-c4cn[nH]c4)cc3)CCNCC2)cc1
inactive: [1]; 10 µM 0 | [2]; 10 µM 0 | [3]; 10 µM 0 | [4]; 10 µM 0 | [5]; 10 µM 0 | [6]; 10 µM 0 | [7]; 10 µM 0 | [8]; 10 µM 0 | [9]; 10 µM 0 | [10]; 10 µM 0 | [11]; 10 µM 0 | [12]; 10 µM 0 | [13]; 10 µM 0 | [14]; 10 µM 0 | [15]; 10 µM 0 | [16]; 10 µM 0 | [17]; 10 µM 0 | [18]; 10 µM 0 | [19]; 10 µM 0 | [20]; 10 µM 0

N=C(N)NC(=O)c1nc(Cl)c(N)nc1N [Amiloride hydrochloride dihydrate]
inactive: [1]; 10 µM 0 | [2]; 10 µM 0 | [3]; 10 µM 0 | [4]; 10 µM 0 | [5]; 10 µM 0 | [6]; 10 µM 0 | [7]; 10 µM 0 | [8]; 10 µM 0 | [9]; 10 µM 0 | [10]; 10 µM 0 | [11]; 10 µM 0 | [12]; 10 µM 0 | [13]; 10 µM 0 | [14]; 10 µM 0 | [15]; 10 µM 0 | [16]; 10 µM 0 | [17]; 10 µM 0 | [18]; 10 µM 0 | [19]; 10 µM 0 | [20]; 10 µM 0
